This is one part of the list. Hit calls seldom repeat between salt and free forms of one compound.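 Kinases were expressed as nanoluciferase fusions in K562 cells and luminescence was read every 4 h between 2 and 18 h as percent of control, DMSO set to 100% and a positive control to 0%. A time point counts as decreased when the signal drops significantly (2 sigma). The hit call is the authors' own, does not follow from the count of time points alone, and its rule is not shown.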
Target: GSK3A (UniProt P49840)
Experiment: kinase-Nluc reporter destabilization hit call (1 = scored as downregulated) (binary); higher = compound decreases kinase abundance
Details: K562; 2-18 h

The chains behind the UniProt entries cited, without tags or fusion partners. Where a name states a change or a piece, a line headed by the entry shows the natural chain unless it says otherwise.
UniProt P49840: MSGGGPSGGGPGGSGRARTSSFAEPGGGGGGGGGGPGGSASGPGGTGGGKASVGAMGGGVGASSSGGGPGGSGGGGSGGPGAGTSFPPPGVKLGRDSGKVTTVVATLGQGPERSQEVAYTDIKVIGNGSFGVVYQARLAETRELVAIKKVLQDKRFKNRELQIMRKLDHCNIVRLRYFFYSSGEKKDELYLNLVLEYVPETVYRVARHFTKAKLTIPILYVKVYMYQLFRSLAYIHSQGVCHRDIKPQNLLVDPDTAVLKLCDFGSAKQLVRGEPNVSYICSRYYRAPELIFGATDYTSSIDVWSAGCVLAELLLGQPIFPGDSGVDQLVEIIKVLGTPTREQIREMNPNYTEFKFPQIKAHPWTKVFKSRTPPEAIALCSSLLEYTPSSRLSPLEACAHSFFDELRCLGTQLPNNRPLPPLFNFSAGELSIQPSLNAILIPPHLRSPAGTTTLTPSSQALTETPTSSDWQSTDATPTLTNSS

kinase-Nluc reporter destabilization hit call, inactive:
CC(C)Cn1ncc2cc(Oc3ccc(F)cc3F)c(C(=O)NCCN(C)C)cc21 [p38α inhibitor 1] (10 µM) 0
CNc1cc2c(Nc3cccc(Br)c3)ncnc2cn1 (10 µM) 0
CN1C(=O)[C@@H](NC(=O)c2cc(Cc3ccccc3)on2)COc2ccccc21 (10 µM) 0
CC(C1CC1)n1cnc2c(NCc3cccc(C(F)(F)F)c3)nc(NCCN(C)C)nc21 (centres undefined) (10 µM) 0
Cc1n[nH]c2ncc(C(=O)N3CCC[C@H]3c3ccc(Cl)cc3)cc12 (10 µM) 0
COc1ccc(Br)c(C=O)c1O [6-Bromo-2-hydroxy-3-methoxybenzaldehyde] (10 µM) 0
Oc1ccc(-c2cnc3ccc(NCc4ccco4)nn23)cc1 [IRAK inhibitor 2] (2.5 µM) 0
C[C@H](Nc1cc2c(-c3ccc4c(c3)OCO4)noc2cn1)c1ccccc1 (10 µM) 0
Nc1ccc(C(=O)Nc2cccc(-c3nc(N4CCOCC4)c4oc5ncccc5c4n3)c2)cn1 (10 µM) 0
CCOC(=O)c1c(N2CCc3ccc(OC)cc3C2)oc(C=C2C=Nc3ncccc32)c1O (10 µM) 0
Cc1ncc(-c2cc(F)c(O)c(F)c2)cc1-c1cc(F)c(O)c(F)c1 (10 µM) 0
N=C(NC(=N)N1CCCC1)Nc1ccc(OC(F)(F)F)cc1 (10 µM) 0
CC1(C)CN(C(=O)c2ccc(-c3cccc4nc(NC(=O)C5CC5)nn34)cc2)C1 [Solcitinib] (10 µM) 0
COc1c(O)cc(O)c2c(=O)cc(-c3ccccc3)oc12 [Wogonin] (10 µM) 0
O=C(NC[C@H](O)CO)c1ccncc1Nc1ccc(I)cc1F [Pimasertib] (10 µM) 0
N#Cc1cnc(Nc2cc(NC[C@H]3CNCCO3)c(C(F)(F)F)cn2)cn1 (10 µM) 0
CCNC(=O)Nc1ccc(-c2nc3c(c(N4CCOC[C@@H]4C)n2)CCN(C2COC2)C3)cc1 (2.5 µM) 0
COc1cc2ncnc(Nc3cc(Br)c(O)c(Br)c3)c2cc1OC (2.5 µM) 0
Nc1ccc(-c2nc3ccc(-c4nc5ccc(N)cc5[nH]4)cc3[nH]2)cc1 (10 µM) 0
CCCCC(=O)OCC(=O)[C@]1(O)Cc2c(O)c3c(c(O)c2[C@@H](O[C@H]2C[C@H](NC(=O)C(F)(F)F)[C@H](O)[C@H](C)O2)C1)C(=O)c1c(OC)cccc1C3=O [Valrubicin] (10 µM) 0
CCOC(=O)c1c(Nc2ccccc2Cl)oc(/C=C2\C=Nc3ncccc32)c1O (10 µM) 0
Nc1[nH]nc2nnc(-c3c(-c4ccccc4)nn4ccccc34)cc12 (10 µM) 0
COc1cc2nc(NC3CC3)nc(NC3CCN(C(C)C)CC3)c2cc1OC (10 µM) 0
S=C(NCc1ccc2c(c1)OCO2)N1CCN(c2ncnc3c2oc2ccccc23)CC1 [Amuvatinib] (2.5 µM) 0
CC(=O)O[C@@H]1[C@@H](OC(C)=O)[C@@H](O)[C@H](Oc2c(-c3ccc(O)cc3)oc3cc(O)cc(O)c3c2=O)O[C@H]1C (10 µM) 0
CC1=CC(=O)C(C(C)C)=C/C1=N/OC(=O)c1ccccc1C [Poloxin] (2.5 µM) 0
CO[C@@H]1[C@H](N(C)C(=O)c2ccccc2)C[C@H]2O[C@]1(C)n1c3ccccc3c3c4c(c5c6ccccc6n2c5c31)C(=O)NC4 [Midostaurin] (2.5 µM) 0
Fc1ccc(Cl)cc1-c1nc(Nc2ccncc2)c2nccnc2n1 (10 µM) 0
CN1CCC(Nc2ccc(C(=O)Nc3cc(-c4ccc5c(c4)OCO5)[nH]n3)cc2)CC1 (10 µM) 0
CN1CCC(Nc2nc(Nc3ccc(Oc4ccccc4)cc3)c3c(=O)[nH]cc(Br)c3n2)CC1 (2.5 µM) 0
O=C(COc1ccc(Cl)cc1)NC1CCC(NC(=O)COc2ccc(Cl)cc2)CC1 (stereo not drawn) [ISRIB (trans-isomer)] (10 µM) 0
Cc1ccc(C2CC(=O)NC(SCC(=O)Nc3nccs3)=C2C#N)cc1 (centres undefined) [Necrostatin-34] (10 µM) 0
CCCCNc1ncc(C(=O)NCc2ccc(-n3ccnc3)cc2)c(NC2CCC(O)CC2)n1 (centres undefined) (10 µM) 0
O=C1NC(=O)C(Cc2c[nH]c3c(Cl)cccc23)N1 (centres undefined) [Necroptosis-IN-1] (10 µM) 0
O=C1C=CC2=C3c4cc(O)c(O)cc4CC3(O)COC2=C1O (centres undefined) [Hematein] (10 µM) 0
NC(=O)c1cnc(N[C@@H]2CCCC[C@@H]2N)nc1Nc1cccc(-n2nccn2)c1 (2.5 µM) 0
COc1cc2nc(-c3cc(F)ccc3O)nc(N[C@@H]3CNC[C@H]3C(C)(C)O)c2cc1OC (2.5 µM) 0
CN1CCN(Cc2ccc(-c3cn(C4CCC(O)CC4)c4nc(NCCC5CC5)ncc34)cc2)CC1 (centres undefined) (2.5 µM) 0
O=S(=O)(c1ccc(O)cc1O)N1Cc2cc(O)cc(O)c2C1 (10 µM) 0

Some of these compounds in order of molar mass, low to high.
kinase-Nluc reporter destabilization hit call, inactive:
Cc1ncc(-c2cc(F)c(O)c(F)c2)cc1-c1cc(F)c(O)c(F)c1 (10 µM) 0
N#Cc1cnc(Nc2cc(NC[C@H]3CNCCO3)c(C(F)(F)F)cn2)cn1 (10 µM) 0
O=C(NC[C@H](O)CO)c1ccncc1Nc1ccc(I)cc1F [Pimasertib] (10 µM) 0

Reference: the supplement of paper PMC12823440, “Inhibitors supercharge kinase turnover through native proteolytic circuits” (Nature, 2025)
